Measurements: US20260265242A1, “FABK INHIBITOR COMPOSITIONS” (The Texas A&M University System, priority 2023, published 2026)
Some entries share one result that the patent states for a list of compounds.

Tested on: C. difficile strain R20291
Assay: MIC determination by broth microdilution
Type: cell-based
Settings: unit printed as g/mL

O=C(NCc1nc(-c2ccc(Br)cc2)c[nH]1)Nc1ncc(Sc2ccc3ccccc3n2)s1 [Compound 5h]
MIC (anti-C. difficile activity): > 50 µg/mL
